According to patent US20050112168A1:
Results are given in words; binding and its absence hold for the method and conditions named. Some binding calls cover weakened binding; strength is not graded here.

Chains of the proteins cited; added tags and fusions are not shown. Residues count along the entry.
UniProt P09889, residues 22-340: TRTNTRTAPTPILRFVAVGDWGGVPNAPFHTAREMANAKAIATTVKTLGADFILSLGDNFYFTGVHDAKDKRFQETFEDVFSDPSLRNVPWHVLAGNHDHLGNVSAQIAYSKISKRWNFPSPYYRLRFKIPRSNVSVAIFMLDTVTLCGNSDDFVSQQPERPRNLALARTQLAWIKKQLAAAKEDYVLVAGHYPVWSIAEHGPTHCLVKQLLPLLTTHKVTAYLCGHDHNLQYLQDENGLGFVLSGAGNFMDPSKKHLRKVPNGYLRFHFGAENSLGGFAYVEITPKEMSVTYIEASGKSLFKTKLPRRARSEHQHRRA
UniProt P29288, residues 23-327: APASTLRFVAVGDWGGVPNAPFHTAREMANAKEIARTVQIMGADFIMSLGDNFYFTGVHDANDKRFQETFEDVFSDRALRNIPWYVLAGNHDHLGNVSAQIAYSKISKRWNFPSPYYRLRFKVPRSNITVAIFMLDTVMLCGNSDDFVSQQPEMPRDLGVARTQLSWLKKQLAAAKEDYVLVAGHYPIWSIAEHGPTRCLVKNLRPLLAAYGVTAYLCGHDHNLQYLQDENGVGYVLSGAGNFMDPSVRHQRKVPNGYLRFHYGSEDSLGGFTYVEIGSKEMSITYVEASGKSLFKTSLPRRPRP

Key:
[1] = biological target: purified type V tartrate resistant acid phosphatase (TRAP), also known as uteroferrin (UniProt P09889); assay: Far-Western, TRAP on membrane probed with intact phage
[2] = biological target: TRAP in osteoclast resorption lacunae on cortical bone wafers (rat (osteoclasts from rat pups)) (UniProt P29288); assay: in situ staining of pitted bone wafers with phage and HRP anti-phage antibody
[3] = biological target: purified type V tartrate resistant acid phosphatase (TRAP), also known as uteroferrin (UniProt P09889); assay: Far-Western, increasing amounts of TRAP probed with Clone 5 phage
[4] = biological target: purified type V tartrate resistant acid phosphatase (TRAP), also known as uteroferrin (UniProt P09889); assay: Far-Western detection of TRAP with M13 Clone 5 phage (named in paragraph 417)
[5] = biological target: purified type V tartrate resistant acid phosphatase (TRAP), also known as uteroferrin (UniProt P09889); assay: Scatchard-type analysis on immobilised TRAP (FIG. 6)
[6] = biological target: TRAP in osteoclast resorption lacunae on cortical bone wafers (rat (osteoclasts from rat pups)) (UniProt P29288); assay: Far-Western of proteins extracted from pitted bone wafers by boiling

Measured: binding

TPLSYLKGLVTV (peptide, not shown: large carriers) [Clone 5 phage (M13 phage displaying the 12-mer …)]
binds: all assays above
